The values below come from publication PMC8806772.

Sequences of proteins named here, by UniProt entry; tags and fusion partners are left off.
UniProt Q15910: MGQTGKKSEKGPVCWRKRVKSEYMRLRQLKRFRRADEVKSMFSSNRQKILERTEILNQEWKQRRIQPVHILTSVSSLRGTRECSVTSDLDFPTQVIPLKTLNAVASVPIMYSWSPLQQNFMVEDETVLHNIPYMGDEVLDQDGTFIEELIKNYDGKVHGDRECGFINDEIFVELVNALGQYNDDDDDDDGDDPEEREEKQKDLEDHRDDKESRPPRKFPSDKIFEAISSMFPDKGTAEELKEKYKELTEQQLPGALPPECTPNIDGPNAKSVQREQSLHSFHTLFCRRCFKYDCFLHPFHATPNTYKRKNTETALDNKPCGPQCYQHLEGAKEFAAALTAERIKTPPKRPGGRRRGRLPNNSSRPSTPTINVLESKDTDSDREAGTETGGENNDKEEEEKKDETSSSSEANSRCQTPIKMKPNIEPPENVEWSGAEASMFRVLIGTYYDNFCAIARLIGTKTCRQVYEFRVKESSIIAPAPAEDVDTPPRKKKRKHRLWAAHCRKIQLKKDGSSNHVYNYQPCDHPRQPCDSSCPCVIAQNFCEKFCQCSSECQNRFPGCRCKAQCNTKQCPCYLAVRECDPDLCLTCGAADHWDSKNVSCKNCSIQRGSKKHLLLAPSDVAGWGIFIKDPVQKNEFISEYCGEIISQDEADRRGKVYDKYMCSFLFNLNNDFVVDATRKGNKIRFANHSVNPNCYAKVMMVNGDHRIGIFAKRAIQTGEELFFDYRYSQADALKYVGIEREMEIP

These are yes or no findings as the source states them, for the method shown. In cells and extracts the contact can be indirect. Some entries that bind do so weakly or less than the wild type.

This assay concerns the target enhancer of zeste homolog 2 (EZH2) (human (endogenous in the cultured cells; all cell lines of the paper are human)) (UniProt Q15910). Kind of assay: co-IP; cells lysed in RIPA buffer with protease inhibitors; supernatant incubated overnight at 4°C with anti-CDCA7, anti-EZH2 or IgG (negative control); protein A/G beads 1 h at 4°C; three washes with lysis buffer; western blot. For orientation: In western blotting, separated proteins are transferred to a membrane and probed.

B1: cell division cycle-associated protein 7 (CDCA7) (protein, UniProt Q9BWT1 1-371)
chain: MDARRVPQKDLRVKKNLKKFRYVKLISMETSSSSDDSCDSFASDNFANTRLQSVREGCRTRSQCRHSGPLRVAMKFPARSTRGATNKKAESRQPSENSVTDSNSDSEDESGMNFLEKRALNIKQNKAMLAKLMSELESFPGSFRGRHPLPGSDSQSRRPRRRTFPGVASRRNPERRARPLTRSRSRILGSLDALPMEEEEEEDKYMLVRKRKTVDGYMNEDDLPRSRRSRSSVTLPHIIRPVEEITEEELENVCSNSREKIYNRSLGSTCHQCRQKTIDTKTNCRNPDCWGVRGQFCGPCLRNRYGEEVRDALLDPNWHCPPCRGICNCSFCRQRDGRCATGVLVYLAKYHGFGNVHAYLKSLKQEFEMQA
As for B1, the binding entry is listed as “binds”.
